Measured values: publication PMC6290791
The exact form of at least one protein or probe is not confirmed. For part of these data: A weaker result is weaker than the reference pair of the same experiment. At least one verdict rests on a figure or table, not on a statement of the authors.

The chains behind the UniProt entries cited, without tags or fusion partners. Where a name states a change or a piece, a line headed by the entry shows the natural chain unless it says otherwise.
UniProt P08047, whole entry: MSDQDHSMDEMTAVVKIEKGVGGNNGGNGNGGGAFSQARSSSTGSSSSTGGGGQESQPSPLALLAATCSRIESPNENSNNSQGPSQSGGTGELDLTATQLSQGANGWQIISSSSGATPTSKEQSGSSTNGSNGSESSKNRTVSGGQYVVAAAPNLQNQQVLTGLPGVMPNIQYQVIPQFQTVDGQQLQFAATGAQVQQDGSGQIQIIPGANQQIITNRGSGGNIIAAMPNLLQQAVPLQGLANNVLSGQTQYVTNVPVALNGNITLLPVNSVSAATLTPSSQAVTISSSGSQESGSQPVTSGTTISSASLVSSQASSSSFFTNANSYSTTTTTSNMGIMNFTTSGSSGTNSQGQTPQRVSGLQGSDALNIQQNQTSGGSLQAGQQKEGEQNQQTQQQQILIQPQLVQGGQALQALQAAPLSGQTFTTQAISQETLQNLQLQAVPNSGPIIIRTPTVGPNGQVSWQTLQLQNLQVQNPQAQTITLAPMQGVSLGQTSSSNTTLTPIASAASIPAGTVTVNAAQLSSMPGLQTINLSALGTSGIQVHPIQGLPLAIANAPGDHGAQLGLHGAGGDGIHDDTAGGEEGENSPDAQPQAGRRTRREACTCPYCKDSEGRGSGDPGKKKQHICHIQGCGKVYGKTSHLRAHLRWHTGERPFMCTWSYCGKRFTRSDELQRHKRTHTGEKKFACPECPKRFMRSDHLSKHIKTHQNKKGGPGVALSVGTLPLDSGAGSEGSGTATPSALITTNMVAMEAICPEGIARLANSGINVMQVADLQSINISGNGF
UniProt Q02447: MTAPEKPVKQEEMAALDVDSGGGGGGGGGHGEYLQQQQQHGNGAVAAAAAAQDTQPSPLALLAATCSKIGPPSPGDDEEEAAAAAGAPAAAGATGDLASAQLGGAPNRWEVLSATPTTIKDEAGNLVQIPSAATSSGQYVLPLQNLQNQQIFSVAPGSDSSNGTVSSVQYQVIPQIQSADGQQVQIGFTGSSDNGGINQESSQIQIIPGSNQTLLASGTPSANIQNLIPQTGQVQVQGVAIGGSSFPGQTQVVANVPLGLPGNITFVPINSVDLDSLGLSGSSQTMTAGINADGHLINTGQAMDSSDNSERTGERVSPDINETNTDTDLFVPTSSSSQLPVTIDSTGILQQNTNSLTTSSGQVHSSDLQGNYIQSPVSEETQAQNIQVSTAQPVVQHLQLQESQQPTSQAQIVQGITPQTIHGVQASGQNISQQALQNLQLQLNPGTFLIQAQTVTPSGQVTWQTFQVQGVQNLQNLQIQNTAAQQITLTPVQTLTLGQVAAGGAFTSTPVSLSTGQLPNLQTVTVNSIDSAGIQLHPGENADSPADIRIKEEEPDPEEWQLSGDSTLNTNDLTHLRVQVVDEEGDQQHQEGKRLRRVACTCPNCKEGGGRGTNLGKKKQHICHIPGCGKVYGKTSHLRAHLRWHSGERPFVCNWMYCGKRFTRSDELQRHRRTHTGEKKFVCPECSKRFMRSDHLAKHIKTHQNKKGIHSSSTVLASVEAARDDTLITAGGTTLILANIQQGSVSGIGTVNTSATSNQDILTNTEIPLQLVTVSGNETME

Legend:
[1] = target: Sp1 (UniProt P08047); assay: EMSA; conditions: 10 mM Tris pH 7.5, 50 mM KCl, 1 mM DTT, 75 ng/ul poly(dI-dC), 0.25 mg/ml BSA, 40 fmol probe, 1 ug protein, 20 min room temperature; Sp3 buffer plus 5% glycerol; commercial protein; label: 5'-biotin on both strands
[2] = target: Sp3 (UniProt Q02447); assay: EMSA; conditions: 5 mM MgCl2, stated 'not or only negligibly occupied'; 10 mM Tris pH 7.5, 50 mM KCl, 1 mM DTT, 75 ng/ul poly(dI-dC), 0.25 mg/ml BSA, 40 fmol probe, 1 ug protein, 20 min room temperature; Sp3 buffer plus 5% glycerol; commercial protein; label: 5'-biotin on both strands

Sequence | binding result [1] | binding result [2]
ACAGGGGTGTGGGGAGGGGGCGCCG (double strand) [SP1.5] | binds | binds more weakly
CCCAGGCCCCGCCCTCTCCGCCTCG (double strand) [SP1.4] | binds | 
CCCCTCCCTGCGCGCCCCGTCCCCG (double strand) [SP1.7] |  | binds more weakly
GCCGCGCGGGCCAGGCGCCCGCCCC (double strand) [SP1.6] | binds | binds more weakly
GCCTCCTCCCCACCCCTTCAAGCCC (double strand) [SP1.1] | binds | binds more weakly
TCCTCCCTCGGCTCCTCCCCCAGGC (double strand) [SP1.3] | binds | 
